Test results: US20020106690A1 (published 2002)
Numbering of substitutions follows the chain as printed. Names and notes keep the numbering of the source. No constants are given. Whether binding was seen depends on the method and setting. For some assays here: Binding seen in cells or lysates may run through a third protein. Some results given as binding are weak or reduced against the parent protein; the word gives no strength. For some assays here: Where a sequence is shown, tags or fusion partners need not be part of it. Values belong to the molecule of their own block, whether it stands above or below them.

Chains of the proteins cited; added tags and fusions are not shown.
UniProt P18852: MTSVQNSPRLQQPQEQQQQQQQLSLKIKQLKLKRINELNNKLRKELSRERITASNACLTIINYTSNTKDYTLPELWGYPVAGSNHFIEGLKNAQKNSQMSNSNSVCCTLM

How the values were obtained:
[1] = molecular target: T1, Ste4p (Saccharomyces cerevisiae (yeast)) (UniProt P18851); experiment: GST pull-down of in vitro-translated 35S-Ste4p, autoradiography
T1 sequence (35S-labelled methionine in the in vitro-translated form, looked up): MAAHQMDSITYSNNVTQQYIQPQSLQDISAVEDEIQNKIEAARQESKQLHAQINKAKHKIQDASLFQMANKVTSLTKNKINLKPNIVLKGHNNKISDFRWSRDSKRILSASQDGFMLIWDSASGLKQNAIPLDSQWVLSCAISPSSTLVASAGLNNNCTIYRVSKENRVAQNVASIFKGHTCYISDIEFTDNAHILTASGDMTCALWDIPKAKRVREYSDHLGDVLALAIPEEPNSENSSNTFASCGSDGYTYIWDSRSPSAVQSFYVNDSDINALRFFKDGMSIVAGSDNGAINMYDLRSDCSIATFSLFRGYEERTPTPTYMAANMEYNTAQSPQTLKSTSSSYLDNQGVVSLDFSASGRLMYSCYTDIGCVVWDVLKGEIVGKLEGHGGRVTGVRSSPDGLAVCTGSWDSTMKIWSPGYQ

[2] = molecular target: T1, Ste4p (Saccharomyces cerevisiae (yeast)); experiment: GST pull-down of in vitro-translated 35S-Ste4p (legend of FIG. 2)
[3] = molecular target: T2, GST-Ste20p FL (Saccharomyces cerevisiae (yeast)) (UniProt Q03497); experiment: GST pull-down of in vitro-translated 35S-Ste4p mutant, with HA-Ste18p present
T2 sequence: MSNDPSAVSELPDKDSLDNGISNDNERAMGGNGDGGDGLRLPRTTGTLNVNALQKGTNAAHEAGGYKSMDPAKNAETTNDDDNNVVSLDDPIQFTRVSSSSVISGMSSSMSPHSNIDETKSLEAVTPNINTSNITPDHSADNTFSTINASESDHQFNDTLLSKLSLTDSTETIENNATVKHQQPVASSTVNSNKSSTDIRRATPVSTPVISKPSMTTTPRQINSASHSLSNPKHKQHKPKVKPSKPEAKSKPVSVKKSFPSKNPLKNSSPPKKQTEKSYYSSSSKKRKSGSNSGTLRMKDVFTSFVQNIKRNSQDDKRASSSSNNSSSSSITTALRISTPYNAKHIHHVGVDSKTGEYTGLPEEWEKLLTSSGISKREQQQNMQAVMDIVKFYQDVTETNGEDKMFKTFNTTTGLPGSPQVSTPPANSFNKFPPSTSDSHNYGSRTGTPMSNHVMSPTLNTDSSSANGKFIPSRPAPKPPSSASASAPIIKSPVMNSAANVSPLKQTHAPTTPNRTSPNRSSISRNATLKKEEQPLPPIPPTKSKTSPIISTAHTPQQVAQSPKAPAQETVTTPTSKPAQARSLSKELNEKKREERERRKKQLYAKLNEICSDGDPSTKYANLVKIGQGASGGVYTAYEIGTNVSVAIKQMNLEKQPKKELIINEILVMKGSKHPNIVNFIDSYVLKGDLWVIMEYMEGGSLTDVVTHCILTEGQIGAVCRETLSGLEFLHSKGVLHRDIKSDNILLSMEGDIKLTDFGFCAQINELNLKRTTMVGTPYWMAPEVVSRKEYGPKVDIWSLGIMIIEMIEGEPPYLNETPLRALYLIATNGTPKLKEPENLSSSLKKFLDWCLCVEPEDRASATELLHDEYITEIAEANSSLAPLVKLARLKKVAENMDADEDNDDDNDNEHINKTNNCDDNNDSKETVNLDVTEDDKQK

[4] = molecular target: T3, GST-Ste5p (Saccharomyces cerevisiae (yeast)) (UniProt P32917); experiment: as above
T3 sequence (looked up): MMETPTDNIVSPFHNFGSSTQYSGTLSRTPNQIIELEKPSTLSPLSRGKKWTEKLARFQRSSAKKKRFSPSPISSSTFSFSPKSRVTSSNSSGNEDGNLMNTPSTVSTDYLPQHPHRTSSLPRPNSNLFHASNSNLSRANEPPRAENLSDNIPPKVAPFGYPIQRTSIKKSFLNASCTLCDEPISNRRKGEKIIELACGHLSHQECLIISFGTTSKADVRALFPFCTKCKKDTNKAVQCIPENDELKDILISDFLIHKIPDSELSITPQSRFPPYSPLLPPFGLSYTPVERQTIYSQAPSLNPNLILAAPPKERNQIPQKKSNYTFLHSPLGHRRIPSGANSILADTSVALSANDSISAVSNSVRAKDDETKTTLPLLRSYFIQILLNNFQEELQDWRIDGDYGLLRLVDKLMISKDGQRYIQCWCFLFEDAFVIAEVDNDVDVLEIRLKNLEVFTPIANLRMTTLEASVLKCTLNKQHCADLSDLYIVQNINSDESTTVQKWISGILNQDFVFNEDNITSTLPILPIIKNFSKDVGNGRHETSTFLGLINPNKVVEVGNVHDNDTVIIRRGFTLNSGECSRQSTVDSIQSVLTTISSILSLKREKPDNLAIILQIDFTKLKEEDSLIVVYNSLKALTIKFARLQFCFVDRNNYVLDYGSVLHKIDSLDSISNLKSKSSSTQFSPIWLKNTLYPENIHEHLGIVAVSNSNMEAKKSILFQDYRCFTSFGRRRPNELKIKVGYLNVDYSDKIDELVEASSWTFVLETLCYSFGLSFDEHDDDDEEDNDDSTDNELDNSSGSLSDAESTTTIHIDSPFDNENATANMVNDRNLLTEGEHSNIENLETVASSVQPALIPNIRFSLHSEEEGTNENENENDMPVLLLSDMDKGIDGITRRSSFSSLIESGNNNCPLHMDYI

[5] = molecular target: Ste18p (two-hybrid system) (Saccharomyces cerevisiae (yeast)) (UniProt P18852); experiment: yeast two-hybrid system
[6] = molecular target: T3, GST-Ste5p (Saccharomyces cerevisiae (yeast)); experiment: GST pull-down of in vitro-translated wild-type 35S-Ste4p, with HA-Ste18p present

B2: Ste20p (enzyme)
chain: T2 sequence
notes: Full length Ste20p in yeast cells (endogenous, or from pDH166 / pSTE20-5); also called STE20^WT; wild-type Ste20p
binding [2]: binds

B3: Ste4p K55E mutant (other, Saccharomyces cerevisiae (yeast), UniProt P18851 1-423, looked up)
chain: T1 sequence (35S-labelled methionine in the in vitro-translated form, looked up) with K55E
modifications: 35S-labelled methionine
notes: In vitro-translated, 35S-labelled; also called STE4^K55E; 35S-Ste4p K55E
binding [4]: binds

B6: Ste4p (protein, Saccharomyces cerevisiae (yeast), UniProt P18851 1-423, looked up)
chain: T1 sequence (35S-labelled methionine in the in vitro-translated form, looked up)
modifications: 35S-labelled methionine in the in vitro-translated form
binding [6]: binds

B7: Ste4p D62N mutant (other, Saccharomyces cerevisiae (yeast), UniProt P18851 1-423, looked up)
chain: T1 sequence (35S-labelled methionine in the in vitro-translated form, looked up) with D62N
modifications: 35S-labelled methionine
notes: In vitro-translated, 35S-labelled; also called STE4^D62N; 35S-Ste4p D62N
binding [4]: binds

The next lines start with the values.

binding [1]: binds
binding [2]: binds
Molecule: GST fusion with mouse mPAK3 (from UniProt Q61036 1-544)

binding [3]: binds
binding [4]: binds
B1: Ste4p ΔF177 mutant (protein, Saccharomyces cerevisiae (yeast), UniProt P18851 1-423, looked up)
chain: MAAHQMDSITYSNNVTQQYIQPQSLQDISAVEDEIQNKIEAARQESKQLHAQINKAKHKIQDASLFQMANKVTSLTKNKINLKPNIVLKGHNNKISDFRWSRDSKRILSASQDGFMLIWDSASGLKQNAIPLDSQWVLSCAISPSSTLVASAGLNNNCTIYRVSKENRVAQNVASIKGHTCYISDIEFTDNAHILTASGDMTCALWDIPKAKRVREYSDHLGDVLALAIPEEPNSENSSNTFASCGSDGYTYIWDSRSPSAVQSFYVNDSDINALRFFKDGMSIVAGSDNGAINMYDLRSDCSIATFSLFRGYEERTPTPTYMAANMEYNTAQSPQTLKSTSSSYLDNQGVVSLDFSASGRLMYSCYTDIGCVVWDVLKGEIVGKLEGHGGRVTGVRSSPDGLAVCTGSWDSTMKIWSPGYQ
modifications: 35S-labelled methionine

binding [3]: binds
binding [4]: binds
B4: Ste4p N157H/S175P mutant (protein, Saccharomyces cerevisiae (yeast), UniProt P18851 1-423, looked up)
chain: T1 sequence (35S-labelled methionine in the in vitro-translated form, looked up) with N157H, S175P
modifications: 35S-labelled methionine

binding [5]: binds
B5: Ste4p^D62N mutant (two-hybrid system) (protein, Saccharomyces cerevisiae (yeast), UniProt P18851 1-423, looked up)
chain: T1 sequence (35S-labelled methionine in the in vitro-translated form, looked up) with D62N
